Chains of the proteins cited; added tags and fusions are not shown.
UniProt Q14318: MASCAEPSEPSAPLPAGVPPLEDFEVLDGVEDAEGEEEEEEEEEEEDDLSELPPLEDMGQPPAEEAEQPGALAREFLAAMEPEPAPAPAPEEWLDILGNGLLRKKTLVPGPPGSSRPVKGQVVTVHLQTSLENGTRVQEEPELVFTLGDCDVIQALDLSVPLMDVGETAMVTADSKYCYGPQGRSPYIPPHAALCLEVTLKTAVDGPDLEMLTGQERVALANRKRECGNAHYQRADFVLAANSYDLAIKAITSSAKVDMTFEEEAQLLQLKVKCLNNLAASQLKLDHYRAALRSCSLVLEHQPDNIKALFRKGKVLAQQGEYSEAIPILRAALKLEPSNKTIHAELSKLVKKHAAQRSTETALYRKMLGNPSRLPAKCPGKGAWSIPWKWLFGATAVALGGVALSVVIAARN
UniProt O35465: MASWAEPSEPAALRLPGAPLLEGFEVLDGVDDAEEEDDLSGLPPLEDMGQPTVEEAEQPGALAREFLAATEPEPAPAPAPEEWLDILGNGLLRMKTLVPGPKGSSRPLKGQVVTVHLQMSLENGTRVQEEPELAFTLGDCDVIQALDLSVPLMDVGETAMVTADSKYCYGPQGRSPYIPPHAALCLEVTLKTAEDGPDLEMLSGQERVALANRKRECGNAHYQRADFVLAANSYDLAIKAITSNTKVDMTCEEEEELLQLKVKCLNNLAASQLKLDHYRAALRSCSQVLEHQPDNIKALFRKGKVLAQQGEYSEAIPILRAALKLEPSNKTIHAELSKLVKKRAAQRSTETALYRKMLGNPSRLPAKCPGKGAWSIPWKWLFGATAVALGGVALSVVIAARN
UniProt Q9QY76: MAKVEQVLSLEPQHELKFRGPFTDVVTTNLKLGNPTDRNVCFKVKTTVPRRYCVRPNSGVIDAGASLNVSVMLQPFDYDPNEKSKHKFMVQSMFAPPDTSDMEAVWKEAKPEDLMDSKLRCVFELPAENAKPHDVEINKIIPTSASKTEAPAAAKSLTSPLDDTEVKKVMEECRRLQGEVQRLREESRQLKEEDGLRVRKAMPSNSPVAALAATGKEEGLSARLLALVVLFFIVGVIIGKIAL

In paper doi:10.1101/2023.08.22.554218:

Legend:
[1] = biological target: T1, PDZD8-TurboID (endogenous PDZD8 of PDZD8-TurboID KI HeLa cells) (human (endogenous in HeLa, knock-in)) (UniProt Q8NEN9); assay: proximity labelling
T1 sequence: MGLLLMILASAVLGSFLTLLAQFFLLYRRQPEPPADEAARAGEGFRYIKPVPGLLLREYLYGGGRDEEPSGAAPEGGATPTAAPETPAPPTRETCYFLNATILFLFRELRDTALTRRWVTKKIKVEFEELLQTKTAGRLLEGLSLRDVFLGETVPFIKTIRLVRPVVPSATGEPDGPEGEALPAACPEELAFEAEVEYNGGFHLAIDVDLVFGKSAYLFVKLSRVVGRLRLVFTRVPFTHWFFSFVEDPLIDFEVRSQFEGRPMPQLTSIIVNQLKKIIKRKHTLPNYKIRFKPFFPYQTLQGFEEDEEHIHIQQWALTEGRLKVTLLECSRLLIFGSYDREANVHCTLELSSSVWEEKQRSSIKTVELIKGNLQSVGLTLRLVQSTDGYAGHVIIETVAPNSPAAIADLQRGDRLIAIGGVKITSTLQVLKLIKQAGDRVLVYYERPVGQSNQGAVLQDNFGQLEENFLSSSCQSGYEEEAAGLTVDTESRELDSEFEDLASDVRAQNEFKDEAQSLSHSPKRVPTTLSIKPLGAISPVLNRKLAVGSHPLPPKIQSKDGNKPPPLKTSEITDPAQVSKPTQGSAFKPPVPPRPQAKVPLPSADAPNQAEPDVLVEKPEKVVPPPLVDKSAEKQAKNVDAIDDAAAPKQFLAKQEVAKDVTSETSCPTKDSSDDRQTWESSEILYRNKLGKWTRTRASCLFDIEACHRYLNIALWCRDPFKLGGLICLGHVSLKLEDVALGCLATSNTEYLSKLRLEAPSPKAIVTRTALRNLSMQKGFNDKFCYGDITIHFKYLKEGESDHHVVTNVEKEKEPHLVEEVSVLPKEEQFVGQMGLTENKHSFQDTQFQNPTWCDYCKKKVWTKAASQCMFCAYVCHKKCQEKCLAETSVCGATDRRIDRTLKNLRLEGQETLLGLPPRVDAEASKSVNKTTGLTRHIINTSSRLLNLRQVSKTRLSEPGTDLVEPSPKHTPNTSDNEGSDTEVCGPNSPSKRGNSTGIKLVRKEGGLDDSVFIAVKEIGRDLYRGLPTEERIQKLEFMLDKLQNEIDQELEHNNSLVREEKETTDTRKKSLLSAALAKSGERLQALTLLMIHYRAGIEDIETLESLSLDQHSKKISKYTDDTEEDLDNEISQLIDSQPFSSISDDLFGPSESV

[2] = biological target: T2, PDZD8-3×HA (endogenous PDZD8 of the Pdzd8-3×HA knock-in mouse) (mouse (endogenous in neocortex, knock-in)) (UniProt B9EJ80); assay: affinity purification with mass spectrometry
T2 sequence: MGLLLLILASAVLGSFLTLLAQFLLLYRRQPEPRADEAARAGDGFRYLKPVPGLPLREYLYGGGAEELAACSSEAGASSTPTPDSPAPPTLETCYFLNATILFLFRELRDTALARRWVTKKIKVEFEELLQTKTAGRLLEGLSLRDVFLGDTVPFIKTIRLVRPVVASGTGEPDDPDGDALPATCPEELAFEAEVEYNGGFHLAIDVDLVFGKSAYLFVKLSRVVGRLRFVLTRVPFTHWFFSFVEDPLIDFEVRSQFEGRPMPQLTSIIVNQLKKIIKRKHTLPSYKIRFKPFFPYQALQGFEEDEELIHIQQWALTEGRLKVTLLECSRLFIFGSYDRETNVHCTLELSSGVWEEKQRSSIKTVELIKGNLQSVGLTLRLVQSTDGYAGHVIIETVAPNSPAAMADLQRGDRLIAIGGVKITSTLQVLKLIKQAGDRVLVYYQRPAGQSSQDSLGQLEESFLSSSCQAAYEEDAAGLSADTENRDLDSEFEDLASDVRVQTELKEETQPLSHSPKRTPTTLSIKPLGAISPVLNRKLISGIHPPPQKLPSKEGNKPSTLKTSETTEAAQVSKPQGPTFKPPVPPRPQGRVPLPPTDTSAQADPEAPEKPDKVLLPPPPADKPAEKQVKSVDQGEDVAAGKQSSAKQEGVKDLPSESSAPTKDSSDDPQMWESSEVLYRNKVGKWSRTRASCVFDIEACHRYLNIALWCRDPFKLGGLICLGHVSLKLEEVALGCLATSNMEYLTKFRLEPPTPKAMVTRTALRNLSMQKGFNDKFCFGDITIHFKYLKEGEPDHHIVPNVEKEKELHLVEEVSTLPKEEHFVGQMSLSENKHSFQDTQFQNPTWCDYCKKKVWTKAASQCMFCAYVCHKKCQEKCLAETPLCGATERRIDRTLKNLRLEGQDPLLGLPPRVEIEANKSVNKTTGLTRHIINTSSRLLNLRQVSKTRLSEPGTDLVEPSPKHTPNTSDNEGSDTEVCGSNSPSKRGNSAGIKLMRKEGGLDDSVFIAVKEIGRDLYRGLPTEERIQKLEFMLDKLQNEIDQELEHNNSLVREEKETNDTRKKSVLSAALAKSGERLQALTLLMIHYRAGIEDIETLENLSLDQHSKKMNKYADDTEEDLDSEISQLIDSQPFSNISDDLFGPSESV

[3] = biological target: T3, PDZD8-v5-TurboID (endogenous PDZD8 of Pdzd8-v5-TurboID KI Neuro2a cells) (mouse (endogenous in Neuro2a, knock-in)) (UniProt B9EJ80); assay: proximity labelling
T3 sequence: T2 sequence

| binding [2] | Substance | further results |
| --- | --- | --- |
|  | FKBP8, endogenous, HeLa cells (from UniProt Q14318 1-412) | binding [1]: binds |
| binds | FK506 binding protein 8 (FKBP8), endogenous, mouse neocortex (from UniProt O35465 1-402) |  |
|  | FKBP8, endogenous, Neuro2a cells (from UniProt O35465 1-402) | binding [3]: binds |
| binds | VAPB, endogenous, mouse neocortex (from UniProt Q9QY76 1-243) |  |

These are yes or no findings as the source states them, for the method shown. Binding seen in cells or lysates may run through a third protein. These calls come from enrichment with a bait or labelling near it, and not all partners need be listed. For some of these results: Sequences can lack the tags named with a protein.
